Laboratory results from PMC8708704, “Discovery of New Chemical Tools against Leishmania amazonensis via the MMV Pathogen Box” (Pharmaceuticals, 2021).

Tested on: Leishmania amazonensis promastigotes
Assay: Leishmanicidal activity against promastigotes (alamarBlue assay; screening at 10 µM and IC50)
Type: cell-based
Conditions: first screening, 72 h
Method: For the experiments, promastigotes of Leishmania amazonensis strain (MHOM/BR/77/LTB0016) were used; they were maintained in RPMI 1640 medium (Gibco, Massachusetts, USA) at 26 °C. […] The concentration of DMSO never exceeded 0.1% (v/v), avoiding the effect on the parasite’s proliferation or morphology. Subsequently, the plates were analyzed on an EnSpire multimode plate reader (PerkinElmer, MA, USA) to measure their fluorescence after 72 h. […] To this end, serial dilutions were performed in 96 well plates, and incubated with the parasites for 72 h after adding alamarBlue®. Next, the plates were analyzed on the EnSpire plate reader and the IC50 values were calculated by using SigmaPlot 14.0 (Systat Software Inc., Chicago, IL, USA). Each concentration was tested in duplicate and in three independent experiments for all the compounds.

CN1CCCC1CCO[C@](C)(c1ccccc1)c1ccc(Cl)cc1 (stereo partly shown) [MMV637229]
% of inhibition at 10 µM (against L. amazonensis promastigotes): 61%
